PubChem BioAssay AID720505, Drosophila RNAi Screening Center, 2013
The screen tested about 20,000 reagents; below is a random part of those with a known target gene and a result. Over the whole deposit, about 2,100 (10%) are marked active. 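Raw plate signals without normalisation; calls rest on control-based scores that were not deposited; replicate 2 separates called from uncalled poorly.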 Reagents against one gene are numbered here. Names joined by + are all predicted targets of the reagent. No sequences are given here. The record does not give: the amount of reagent, the time to read-out.

Assay: 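Fly regulators or components of the CRAC channel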 (primary screen)
System: Drosophila S2R+ cells
Knock-down reagent: long dsRNA against Drosophila genes
Conditions: thapsigargin (2 µM) in calcium-free buffer to empty internal stores, then 2 mM calcium added back
Detection: 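Stores emptied by 2 µM thapsigargin without calcium, then 2 mM calcium re-added; fluo-4 fluorescence followed by FLIPR in 384-well plates, per-well averaged endpoint, raw; two screen passes, some wells retested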
Direction: calcium signal and retest calcium signal: higher = more calcium entry after store depletion
Hit rule: 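About 1500 genes called as lowering calcium entry, by varying amounts, judged against per-plate control wells with STIM1 as positive and Rho1 as negative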
Calls: active = called as lowering calcium entry; inactive = not called

Gene | dsRNA no. | calcium signal, replicate 1 | calcium signal, replicate 2 | retest calcium signal, replicate 1 | retest calcium signal, replicate 2 | Outcome
Ugt305A1 (GeneID 59217) | 1 | 73.3 | 102 | – | – | inactive
CG9377 (GeneID 34743) | 1 | 93.4 | 110 | – | – | inactive
Klp59D (GeneID 37674) | 1 | 95.9 | 215 | – | – | inactive
CG17378 (GeneID 33951) | 1 | 158 | 104 | – | – | inactive
sm (GeneID 37254) | 1 | 59.4 | 135 | – | – | active
sm (GeneID 37254) | 2 | 136 | 136 | – | – | inactive
CG13724 (GeneID 39927) | 1 | 89 | 164 | – | – | inactive
Nf1 (GeneID 43149) | 1 | 99.9 | 132 | – | – | inactive
CG17666 (GeneID 39452) | 1 | 76.2 | 87.2 | – | – | inactive
SmydA-4 (GeneID 32034) | 1 | 135 | 111 | 5778 | 113 | inactive
SmydA-4 (GeneID 32034) | 2 | 76.1 | 179 | – | – | inactive
BomT3 (GeneID 42598) | 1 | 169 | 160 | – | – | inactive
CG10035 (GeneID 41511) | 1 | 178 | 158 | – | – | inactive
barc (GeneID 40369) | 1 | 64.3 | 100 | – | – | active
CG14408 (GeneID 32407) | 1 | 155 | 121 | – | – | inactive
CG15578 (GeneID 50379) | 1 | 250 | 159 | – | – | inactive
MnM (GeneID 38384) | 1 | 69.5 | 111 | – | – | inactive
CG17048 (GeneID 36479) | 1 | 122 | 178 | – | – | inactive
bb8 (GeneID 42756) | 1 | 227 | 139 | – | – | inactive
Sec61gamma (GeneID 32968) | 1 | 60 | 209 | – | – | active
rst (GeneID 31290) | 1 | 114 | 159 | – | – | inactive
CG13067 (GeneID 39785) | 1 | 67.5 | 114 | – | – | inactive
CG6867 (GeneID 32782) | 1 | 110 | 181 | 88.6 | 104 | inactive
beat-Ic (GeneID 34945) | 1 | 152 | 77 | – | – | inactive
beat-Ic (GeneID 34945) | 2 | 141 | 116 | – | – | inactive
CG9919 (GeneID 32598) | 1 | 82.7 | 144 | – | – | inactive
CG10365 (GeneID 42801) | 1 | 116 | 162 | – | – | inactive
hang (GeneID 32613) | 1 | 160 | 139 | – | – | inactive
hang (GeneID 32613) | 2 | 90.9 | 117 | – | – | inactive
hang (GeneID 32613) | 3 | 170 | 206 | – | – | inactive
CG11594 (GeneID 38473) | 1 | 185 | 108 | – | – | inactive
CG33096 (GeneID 326251) | 1 | 240 | 213 | – | – | inactive
CG13060 (GeneID 39802) | 1 | 87.9 | 115 | – | – | inactive
CG18538 (GeneID 37095) | 1 | 180 | 141 | – | – | inactive

Records above called active, once more:
Gene | dsRNA no. | calcium signal, replicate 1 | calcium signal, replicate 2 | retest calcium signal, replicate 1 | retest calcium signal, replicate 2 | Outcome
sm (GeneID 37254) | 1 | 59.4 | 135 | – | – | active
barc (GeneID 40369) | 1 | 64.3 | 100 | – | – | active
Sec61gamma (GeneID 32968) | 1 | 60 | 209 | – | – | active

More results follow.
Gene | dsRNA no. | calcium signal, replicate 1 | calcium signal, replicate 2 | retest calcium signal, replicate 1 | retest calcium signal, replicate 2 | Outcome
CG9400 (GeneID 32385) | 1 | 128 | 61.1 | – | – | active
park + Targ3 | 1 | 112 | 73.8 | – | – | inactive
Scsalpha2 (GeneID 42326) | 1 | 149 | 153 | – | – | inactive
CG13247 (GeneID 40247) | 1 | 102 | 149 | – | – | inactive
Srrm234 (GeneID 38206) | 1 | 172 | 85 | – | – | inactive
CG5355 (GeneID 34421) | 1 | 83.8 | 112 | – | – | inactive
CG17385 (GeneID 36603) | 1 | 96.4 | 118 | – | – | inactive
CG4914 (GeneID 39597) | 1 | 82.4 | 165 | – | – | inactive
CG14153 (GeneID 39208) | 1 | 73.5 | 108 | – | – | inactive
CG14153 (GeneID 39208) | 2 | 145 | 199 | – | – | inactive
CG9389 (GeneID 40347) | 1 | 114 | 74.6 | – | – | inactive
Ssdp (GeneID 42177) | 1 | 170 | 169 | – | – | inactive
CG14492 (GeneID 37045) | 1 | 171 | 124 | – | – | inactive
Prosalpha4 (GeneID 32584) | 1 | 109 | 152 | – | – | inactive
CG11231 (retired record) (GeneID 43845) | 1 | 77.1 | 108 | – | – | inactive
galene (GeneID 38133) | 1 | 107 | 141 | – | – | inactive
galene (GeneID 38133) | 2 | 85.2 | 101 | – | – | inactive
CG1738 (GeneID 32075) | 1 | 74.5 | 105 | – | – | active
CG12496 (GeneID 31226) | 1 | 96.4 | 118 | – | – | inactive
CG13607 (GeneID 42859) | 1 | 215 | 161 | – | – | inactive
CG7848 (GeneID 36839) | 1 | 132 | 112 | – | – | inactive
Rab5 (GeneID 33418) | 1 | 55.5 | 97 | – | – | active
CG8298 (GeneID 36282) | 1 | 112 | 244 | – | – | inactive
CG8578 (GeneID 32540) | 1 | 137 | 127 | – | – | inactive
SmydA-1 (GeneID 36581) | 1 | 194 | 162 | – | – | inactive
CG14480 (GeneID 36988) | 1 | 185 | 141 | – | – | inactive
SmE (GeneID 34080) | 1 | 86.5 | 99.6 | – | – | inactive
Cpr73D (GeneID 39897) | 1 | 126 | 105 | – | – | inactive
Nmdar2 (GeneID 31107) | 1 | 92.8 | 130 | – | – | inactive
Nmdar2 (GeneID 31107) | 2 | 93.4 | 119 | – | – | inactive
Nmdar2 (GeneID 31107) | 3 | 94.3 | 135 | – | – | inactive
AIF (GeneID 33390) | 1 | 100 | 128 | – | – | inactive
frtz (GeneID 33349) | 1 | 144 | 106 | – | – | inactive
smash (GeneID 40583) | 1 | 130 | 94.7 | – | – | inactive
smash (GeneID 40583) | 2 | 123 | 86.3 | – | – | inactive
smash (GeneID 40583) | 3 | 72.7 | 192 | – | – | inactive
smash (GeneID 40583) | 4 | 85.4 | 147 | – | – | inactive
CG31549 (GeneID 40689) | 1 | 187 | 97.4 | – | – | inactive
Nhe3 (GeneID 33939) | 1 | 121 | 108 | – | – | inactive
Lsp1alpha (GeneID 32199) | 1 | 66.6 | 104 | – | – | active
CG8468 (GeneID 36577) | 1 | 102 | 184 | – | – | inactive
SMC6 (GeneID 42876) | 1 | 213 | 205 | – | – | inactive
Gel (GeneID 46008) | 1 | 112 | 92.5 | – | – | inactive
CG5397 (GeneID 33313) | 1 | 137 | 289 | – | – | inactive
Cyp4d2 (GeneID 31192) | 1 | 130 | 175 | – | – | inactive
CG10183 (GeneID 42782) | 1 | 155 | 81.6 | – | – | inactive
Su(var)3-7 (GeneID 41627) | 1 | 105 | 143 | – | – | inactive
l(2)05287 (GeneID 35374) | 1 | 109 | 89.6 | – | – | inactive
l(2)05287 (GeneID 35374) | 2 | 86.2 | 77.2 | – | – | inactive
